Results deposited as PubChem BioAssay AID1224830 (NIAID, 2016)
The whole screen tested about 18,000 reagents; shown is a random part of them. About 2,900 of them (16%) were called active. 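Calls are made per well; low scores hint the gene aids the LPS response, high scores that it dampens it.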 A number with no mark means an inactive call. Repeated entries: four replicate wells of each siRNA pool.

- Screen: 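Genes whose knock-down alters the TNF-alpha reporter response to LPS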 (primary screen)
- Cell system: human THP-1 monocytic leukaemia cells, TNF dual-luciferase reporter clone, PMA-differentiated to macrophage-like cells
- Reagents: siRNA pool against human genes, 50 nM
- Duration: LPS for 4 h, given about 3 days after siRNA transfection
- Challenge: bacterial LPS (TLR4 ligand), 10 ng/ml
- Detection: 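TNF firefly reporter luminescence divided by renilla, normalised to the plate median, then turned into a robust z-score for each replicate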
- Direction: TNF reporter robust z-score: higher = stronger TNF reporter response to LPS
- Active means: 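Each well counts as active if its z-score is over 2.8 or under -1.5; controls are left without a call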

gene	TNF reporter robust z-score
AIF1L (allograft inflammatory factor 1 like)	0.21
AIF1L (allograft inflammatory factor 1 like)	0.73
AIF1L (allograft inflammatory factor 1 like)	1.17
AIF1L (allograft inflammatory factor 1 like)	0.51
IGF2 (insulin like growth factor 2)	-0.83
IGF2 (insulin like growth factor 2)	-0.99
IGF2 (insulin like growth factor 2)	-1.02
IGF2 (insulin like growth factor 2)	-0.92
INPP5E (inositol polyphosphate-5-phosphatase E)	0.88
INPP5E (inositol polyphosphate-5-phosphatase E)	0.16
INPP5E (inositol polyphosphate-5-phosphatase E)	-0.19
INPP5E (inositol polyphosphate-5-phosphatase E)	-0.14
STARD10 (StAR related lipid transfer domain containing 10)	-1.03
STARD10 (StAR related lipid transfer domain containing 10)	-0.19
STARD10 (StAR related lipid transfer domain containing 10)	-0.84
STARD10 (StAR related lipid transfer domain containing 10)	-0.99
G6PC2 (glucose-6-phosphatase catalytic subunit 2)	-0.69
G6PC2 (glucose-6-phosphatase catalytic subunit 2)	0.22
G6PC2 (glucose-6-phosphatase catalytic subunit 2)	0.12
G6PC2 (glucose-6-phosphatase catalytic subunit 2)	0.51
PRPS1 (phosphoribosyl pyrophosphate synthetase 1)	-0.81
PRPS1 (phosphoribosyl pyrophosphate synthetase 1)	-1.54 (active)
PRPS1 (phosphoribosyl pyrophosphate synthetase 1)	-0.27
PRPS1 (phosphoribosyl pyrophosphate synthetase 1)	-0.94
TAAR5 (trace amine associated receptor 5)	-0.68
TAAR5 (trace amine associated receptor 5)	-0.46
TAAR5 (trace amine associated receptor 5)	-0.29
TAAR5 (trace amine associated receptor 5)	-0.04
WDR26 (WD repeat domain 26)	0.47
WDR26 (WD repeat domain 26)	0.84
WDR26 (WD repeat domain 26)	-0.26
WDR26 (WD repeat domain 26)	0.03

Called active, of those listed so far:
gene	TNF reporter robust z-score
PRPS1 (phosphoribosyl pyrophosphate synthetase 1)	-1.54 (active)

More entries follow.
gene	TNF reporter robust z-score
RPP38-DT (RPP38 divergent transcript)	2.29
RPP38-DT (RPP38 divergent transcript)	1.96
RPP38-DT (RPP38 divergent transcript)	0.91
RPP38-DT (RPP38 divergent transcript)	2.12
SMIM3 (small integral membrane protein 3)	-0.45
SMIM3 (small integral membrane protein 3)	-0.36
SMIM3 (small integral membrane protein 3)	0.22
SMIM3 (small integral membrane protein 3)	-0.43
CHDH (choline dehydrogenase)	2.29
CHDH (choline dehydrogenase)	0.87
CHDH (choline dehydrogenase)	-0.5
CHDH (choline dehydrogenase)	1.15
CCDC43 (coiled-coil domain containing 43)	2.73
CCDC43 (coiled-coil domain containing 43)	1.94
CCDC43 (coiled-coil domain containing 43)	1.03
CCDC43 (coiled-coil domain containing 43)	1.93
UCMA (upper zone of growth plate and cartilage matrix associated)	-0.73
UCMA (upper zone of growth plate and cartilage matrix associated)	-0.51
UCMA (upper zone of growth plate and cartilage matrix associated)	-0.58
UCMA (upper zone of growth plate and cartilage matrix associated)	-0.07
RIBC1 (RIB43A domain with coiled-coils 1)	-0.94
RIBC1 (RIB43A domain with coiled-coils 1)	-0.17
RIBC1 (RIB43A domain with coiled-coils 1)	-1.33
RIBC1 (RIB43A domain with coiled-coils 1)	0.44
ADGRA3 (adhesion G protein-coupled receptor A3)	0.5
ADGRA3 (adhesion G protein-coupled receptor A3)	1.54
ADGRA3 (adhesion G protein-coupled receptor A3)	1.53
ADGRA3 (adhesion G protein-coupled receptor A3)	0.21
CHIA (chitinase acidic)	-0.87
CHIA (chitinase acidic)	0.98
CHIA (chitinase acidic)	-0.15
CHIA (chitinase acidic)	0.35
IFNG (interferon gamma)	1.43
IFNG (interferon gamma)	0.63
IFNG (interferon gamma)	1.09
IFNG (interferon gamma)	2.44
CALD1 (caldesmon 1)	1.04
CALD1 (caldesmon 1)	-0.37
CALD1 (caldesmon 1)	-0.78
CALD1 (caldesmon 1)	0.35
BCL2A1 (BCL2 related protein A1)	0.16
BCL2A1 (BCL2 related protein A1)	0.08
BCL2A1 (BCL2 related protein A1)	-0.5
BCL2A1 (BCL2 related protein A1)	0.35
